Data as given in publication PMC8534408.
No constants are given. Whether binding was seen depends on the method and setting. In cells and extracts the contact can be indirect. Binding can be weak; no strength is given.

Target: SH.SZT2WT (STREP-HA tagged seizure threshold 2, wild type) (human)
Assay: pull-down; eluates of the Strep-Tactin purification of SH.SZT2WT and SH.GFP (starved or stimulated cells) run on SDS-PAGE and immunoblotted for endogenous proteins

B1: KPTN (protein, UniProt Q9Y664 1-436)
chain: MMGEAAVAAGPCPLREDSFTRFSSQSNVYGLAGGAGGRGELLAATLKGKVLGFRYQDLRQKIRPVAKELQFNYIPVDAEIVSIDTFNKSPPKRGLVVGITFIKDSGDKGSPFLNIYCDYEPGSEYNLDSIAQSCLNLELQFTPFQLCHAEVQVGDQLETVFLLSGNDPAIHLYKENEGLHQFEEQPVENLFPELTNLTSSVLWLDVHNFPGTSRRLSALGCQSGYVRVAHVDQRSREVLQMWSVLQDGPISRVIVFSLSAAKETKDRPLQDEYSVLVASMLEPAVVYRDLLNRGLEDQLLLPGSDQFDSVLCSLVTDVDLDGRPEVLVATYGQELLCYKYRGPESGLPEAQHGFHLLWQRSFSSPLLAMAHVDLTGDGLQELAVVSLKGVHILQHSLIQASELVLTRLRHQVEQRRRRLQGLEDGAGAGPAENAAS
With B1 the binding was “binds”.
